PubChem BioAssay AID493246 | Drosophila RNAi Screening Center | 2011
Screen: 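Genome-wide search for dsRNAs that reduce cell number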 (primary screen). Cells: Drosophila Kc and S2R+ cells. Reagents: long dsRNA against Drosophila genes. Detection: 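Cell number per well after knock-down, printed as raw plate values; calls were based on per-plate z-scores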. Direction: Kc cell number and S2R+ cell number: higher = more cells remaining. Hit rule: 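Active when the per-plate z-score of cell number is 3 or more in the direction of fewer cells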.
The screen tested about 21,000 reagents; this is an unselected part of those that have a named target and a result. Over the whole deposit, 429 (2%) got an active call. 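Values are raw and not normalised between plates; calls rest on per-plate z-scores that were not deposited.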 Names joined by + are all predicted targets of the reagent. The record does not give: the amount of reagent, the time to read-out.

gene knocked down	DRSC id	Kc cell number, rep 1	Kc cell number, rep 2	S2R+ cell number, rep 1	S2R+ cell number, rep 2	activity call
tj (traffic jam)	DRSC02011	1.56e6	1.69e6	1.17e6	3.23e5	inactive
mEFTu1 (mitochondrial translation elongation factor Tu 1)	DRSC06959	1.37e6	1.41e6	1.06e6	1.08e6	inactive
CG11961	DRSC06099	1.35e6	1.44e6	1.13e6	1.19e6	inactive
mio (missing oocyte)	DRSC00692	1.14e6	1.30e6	5.36e5	4.54e5	inactive
Taf7 (TBP-associated factor 7)	DRSC15445	1.66e6	1.80e6	1.17e6	1.23e6	inactive
Noc2 (Nucleolar complex protein 2)	DRSC03165	1.28e6	1.36e6	9.22e5	1.02e6	inactive
ocm (over compensating males)	DRSC04360	9.53e5	1.04e6	1.11e6	1.15e6	inactive
CG13449	DRSC09996	1.53e6	1.52e6	1.18e6	1.35e6	inactive
ChAT (Choline acetyltransferase)	DRSC13314	1.60e6	1.58e6	1.03e6	1.17e6	inactive
ChAT (Choline acetyltransferase)	DRSC16609	1.22e6	1.23e6	1.10e6	1.17e6	inactive
chico	DRSC03531	1.31e6	1.37e6	1.09e6	1.24e6	inactive
CG15343	DRSC18028	1.56e6	1.51e6	1.08e6	1.18e6	inactive
CG13954	DRSC06442	1.53e6	1.54e6	1.27e6	1.31e6	inactive
Nup37 (Nucleoporin 37kD)	DRSC14419	1.39e6	1.45e6	1.02e6	1.10e6	inactive
h-cup + Rbp	DRSC14990	1.47e6	1.50e6	1.10e6	1.12e6	inactive
ms(2)34Fe (male sterile (2) 34Fe)	DRSC01905	1.54e6	1.61e6	1.26e6	1.41e6	inactive
CG15772	DRSC18078	1.42e6	1.44e6	1.01e6	1.10e6	inactive
CG32686	DRSC17645	1.27e6	1.53e6	1.11e6	1.10e6	inactive
CG13693	DRSC00362	1.86e6	1.88e6	1.14e6	1.22e6	inactive
tsl (torso-like)	DRSC17090	1.51e6	1.53e6	1.18e6	1.25e6	inactive
AP-2mu (Adaptor Protein complex 2, mu subunit)	DRSC14090	1.67e6	1.88e6	1.20e6	1.27e6	inactive
dar1 (dendritic arbor reduction 1)	DRSC08049	1.49e6	1.38e6	9.43e5	1.12e6	inactive
dar1 (dendritic arbor reduction 1)	DRSC08233	1.11e6	1.28e6	9.54e5	1.19e6	inactive
dop (drop out)	DRSC10655	1.34e6	1.42e6	1.24e6	1.27e6	inactive
Boot (Bootlegger)	DRSC06412	1.58e6	1.60e6	1.36e6	1.37e6	inactive
CG18547	DRSC15345	1.89e6	1.94e6	1.35e6	1.43e6	inactive
RFeSP (Rieske iron-sulfur protein)	DRSC00702	1.69e6	1.63e6	9.91e5	1.03e6	inactive
CG13893	DRSC08363	1.59e6	1.50e6	9.79e5	1.25e6	inactive
Raf (Raf oncogene)	DRSC18821	1.51e6	1.50e6	1.02e6	1.12e6	inactive
CG9519	DRSC20195	5.59e5		8.87e5		inactive
dpr14 (defective proboscis extension response 14)	DRSC17767	6.66e5		9.49e5		inactive
Prosalpha2 (Proteasome alpha2 subunit)	DRSC16798	9.76e5	1.05e6	6.39e5	7.48e5	active
CG5897	DRSC10555	1.52e6	1.51e6	1.40e6	1.49e6	inactive
EndoU (Endoribonuclease U-specific)	DRSC15472	1.64e6	1.68e6	1.26e6	1.34e6	inactive
Tina-1 (Troponin C-akin-1)	DRSC04317	1.35e6	1.39e6	1.16e6	1.13e6	inactive
CG30281	DRSC04528	1.46e6	1.53e6	1.06e6	1.04e6	inactive
Best1 (Bestrophin 1)	DRSC16909	1.75e6	1.81e6	1.17e6	1.30e6	inactive
Den1 (Deneddylase 1)	DRSC07195	1.46e6	1.40e6	1.16e6	1.32e6	inactive
CG16926	DRSC06637	1.31e6	1.35e6	1.09e6	1.11e6	inactive
RpL27 (Ribosomal protein L27)	DRSC15638	1.01e6	1.07e6	5.77e5	6.79e5	active
Obp85a (Odorant-binding protein 85a)	DRSC14362	1.49e6	1.60e6	1.27e6	1.42e6	inactive
CG6654	DRSC16084	1.55e6	1.62e6	1.20e6	1.38e6	inactive
COX7AL2 (Cytochrome c oxidase subunit 7A-like 2)	DRSC00099	1.57e6	1.56e6	9.93e5	1.16e6	inactive
CG14636	DRSC12223	1.43e6	1.54e6	1.36e6	1.45e6	inactive
Btnd (Biotinidase)	DRSC18316	1.48e6	1.49e6	1.12e6	1.27e6	inactive
CG7140	DRSC11799	1.33e6	1.28e6	1.27e6	1.37e6	inactive
CG10214	DRSC14213	1.54e6	1.56e6	1.23e6	1.34e6	inactive
CG4597	DRSC10432	1.31e6	1.26e6	1.09e6	1.18e6	inactive
Sec20 (Secretory 20)	DRSC12295	1.64e6	1.82e6	1.33e6	1.49e6	inactive
Art9 (Arginine methyltransferase 9)	DRSC16584	1.26e6	1.30e6	1.20e6	1.40e6	inactive
PK1-R (Pyrokinin 1 receptor)	DRSC16577	1.25e6	1.32e6	1.16e6	1.28e6	inactive
noi (noisette)	DRSC12383	1.18e6	1.30e6	6.71e5	7.60e5	active
CAH7 (Carbonic anhydrase 7)	DRSC15524	1.61e6	1.60e6	1.27e6	1.45e6	inactive
CG12171	DRSC12200	1.34e6	1.36e6	1.28e6	1.39e6	inactive
CG9588	DRSC16504	1.18e6	1.26e6	1.13e6	1.26e6	inactive
mtTFB2 (mitochondrial transcription factor B2)	DRSC15519	1.75e6	1.68e6	1.40e6	1.51e6	inactive
Gbeta13F (G protein beta subunit 13F)	DRSC20247	5.71e5		9.34e5		inactive
tfc (triforce)	DRSC07953	1.50e6	1.45e6	9.75e5	1.11e6	inactive
tfc (triforce)	DRSC07954	1.42e6	1.39e6	9.61e5	1.14e6	inactive
tfc (triforce)	DRSC08626	1.40e6	1.38e6	1.11e6	1.12e6	inactive
CG4459	DRSC15582	1.17e6	1.18e6	1.16e6	1.18e6	inactive
RNaseZ (Ribonuclease Z)	DRSC06845	1.55e6	1.68e6	1.16e6	1.34e6	inactive
Fibp	DRSC11031	1.43e6	1.53e6	1.22e6	1.24e6	inactive
Zwilch	DRSC15376	1.56e6	1.63e6	1.13e6	1.17e6	inactive
Atg6 (Autophagy-related 6)	DRSC15798	1.45e6	1.58e6	1.10e6	1.18e6	inactive
CG9926	DRSC16582	1.52e6	1.58e6	1.15e6	1.19e6	inactive
CG11837	DRSC14397	4.67e5		7.42e5		inactive
CG11018	DRSC06024	1.21e6	1.38e6	1.15e6	1.16e6	inactive
Zip89B (Zinc/iron regulated transporter-related protein 89B)	DRSC16128	1.34e6	1.39e6	1.17e6	1.35e6	inactive
MstProx + Mst84Da	DRSC12597	1.60e6	1.76e6	1.32e6	1.44e6	inactive
CG8838	DRSC00712	1.28e6	1.41e6	1.17e6	1.18e6	inactive
CG14629	DRSC18476	1.51e6	1.52e6	8.50e5	1.05e6	inactive
Mf (Myofilin)	DRSC16120	1.27e6	1.41e6	1.08e6	1.21e6	inactive
Shal (Shaker cognate l)	DRSC09625	1.44e6	1.54e6	1.09e6	1.21e6	inactive
Shal (Shaker cognate l)	DRSC11283	1.41e6	1.49e6	1.24e6	1.35e6	inactive

Sorted by “Kc cell number, rep 2” (ascending): 12 of the entries above.
gene knocked down	DRSC id	Kc cell number, rep 1	Kc cell number, rep 2	S2R+ cell number, rep 1	S2R+ cell number, rep 2	activity call
ocm (over compensating males)	DRSC04360	9.53e5	1.04e6	1.11e6	1.15e6	inactive
ChAT (Choline acetyltransferase)	DRSC16609	1.22e6	1.23e6	1.10e6	1.17e6	inactive
chico	DRSC03531	1.31e6	1.37e6	1.09e6	1.24e6	inactive
CG15772	DRSC18078	1.42e6	1.44e6	1.01e6	1.10e6	inactive
Nup37 (Nucleoporin 37kD)	DRSC14419	1.39e6	1.45e6	1.02e6	1.10e6	inactive
h-cup + Rbp	DRSC14990	1.47e6	1.50e6	1.10e6	1.12e6	inactive
CG15343	DRSC18028	1.56e6	1.51e6	1.08e6	1.18e6	inactive
CG13449	DRSC09996	1.53e6	1.52e6	1.18e6	1.35e6	inactive
CG32686	DRSC17645	1.27e6	1.53e6	1.11e6	1.10e6	inactive
CG13954	DRSC06442	1.53e6	1.54e6	1.27e6	1.31e6	inactive
ChAT (Choline acetyltransferase)	DRSC13314	1.60e6	1.58e6	1.03e6	1.17e6	inactive
ms(2)34Fe (male sterile (2) 34Fe)	DRSC01905	1.54e6	1.61e6	1.26e6	1.41e6	inactive
